Data: patent publication US8883173B2 (priority 2007, dated 2014)

Test: general procedure: Fmoc solid-phase peptide synthesis; HMBA-AM resin; HATU/DIEA
Conditions: whole synthesis, based on the Fmoc-Ala-resin substitution

Substance: LipidC20-DPhe-NMeVal-Ile-Phe-Ala-OMe (L5P)
- isolated yield: 60%
